Results published in US20060035329A1 (CARNEGIE INSTITUTION OF WASHINGTON, published 2006).
No constants are given. Whether binding was seen depends on the method and setting. Some entries that bind do so weakly or less than the wild type. For some assays here: Sequences can lack the tags named with a protein.

Protein sequences, listed by entry. Tags and fused reporters are not part of them. Residues count along the entry.
UniProt P10827, residues 14-490: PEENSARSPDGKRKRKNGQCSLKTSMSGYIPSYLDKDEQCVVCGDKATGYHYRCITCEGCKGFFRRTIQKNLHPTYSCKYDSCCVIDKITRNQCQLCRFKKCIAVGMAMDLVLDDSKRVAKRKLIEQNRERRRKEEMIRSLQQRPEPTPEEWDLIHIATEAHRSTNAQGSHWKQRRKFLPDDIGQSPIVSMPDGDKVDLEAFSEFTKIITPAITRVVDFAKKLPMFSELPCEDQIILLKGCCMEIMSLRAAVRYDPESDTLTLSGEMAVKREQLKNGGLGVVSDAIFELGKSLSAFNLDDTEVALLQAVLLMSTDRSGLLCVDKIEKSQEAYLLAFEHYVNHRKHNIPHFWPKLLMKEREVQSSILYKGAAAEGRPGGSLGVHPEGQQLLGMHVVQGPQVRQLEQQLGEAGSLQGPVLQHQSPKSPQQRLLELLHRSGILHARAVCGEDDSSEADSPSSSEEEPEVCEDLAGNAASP

T1: hr fusion protein (hr amino acids 575-1215 fused to either GST or TrpE; which one is not said) (rat) (UniProt P97609)
T1 sequence: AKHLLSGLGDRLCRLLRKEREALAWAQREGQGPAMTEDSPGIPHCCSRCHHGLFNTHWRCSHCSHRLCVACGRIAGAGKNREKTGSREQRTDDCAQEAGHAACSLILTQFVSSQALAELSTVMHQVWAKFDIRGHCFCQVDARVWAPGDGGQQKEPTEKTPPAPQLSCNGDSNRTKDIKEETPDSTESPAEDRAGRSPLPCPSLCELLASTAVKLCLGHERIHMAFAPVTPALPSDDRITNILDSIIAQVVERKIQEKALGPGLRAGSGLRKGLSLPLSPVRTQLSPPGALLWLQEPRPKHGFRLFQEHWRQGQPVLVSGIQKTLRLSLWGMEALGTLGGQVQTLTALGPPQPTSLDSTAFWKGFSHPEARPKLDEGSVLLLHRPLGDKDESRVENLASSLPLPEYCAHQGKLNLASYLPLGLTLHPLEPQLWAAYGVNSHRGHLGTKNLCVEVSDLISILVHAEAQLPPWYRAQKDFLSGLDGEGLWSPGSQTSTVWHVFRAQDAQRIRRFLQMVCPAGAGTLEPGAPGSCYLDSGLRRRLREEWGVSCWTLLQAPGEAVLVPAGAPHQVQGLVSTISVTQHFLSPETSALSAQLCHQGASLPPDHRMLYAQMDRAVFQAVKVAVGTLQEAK


What was measured:
[1] = target: LexA-hr (hr amino acids 575-1215 fused to the lexA DNA binding domain) (rat); assay: yeast two-hybrid screen (HIS+, lacZ+), LexA-hr bait against VP16-fused human brain cDNA library
[2] = target: T1, hr fusion protein (hr amino acids 575-1215 fused to either GST or TrpE; which one is not said) (rat); assay: far western, 35S-labeled probe

Molecule | binding [1] | binding [2]
clone 2H11, thyroid hormone receptor TRα2 amino acids 14-490 fused to the activation domain of VP16 (from UniProt P10827 14-490) | binds | 
TRβ1 (35S-labeled, from pTZ18 (rTRβ1)) (receptor, rat, UniProt P18113 1-461, looked up, 35S-methionine label) MTPNSMTENRLPAWDKQKPHPDRGQDWKLVGMSEACLHRKSHVERRGALKNEQTSSHLIQATWASSIFHLDPDDVNDQSVSSAQTFQTEEKKCKGYIPSYLDKDELCVVCGDKATGYHYRCITCEGCKGFFRRTIQKSLHPSYSCKYEGKCIIDKVTRNQCQECRFKKCIYVGMATDLVLDDSKRLAKRKLIEENREKRRREELQKSIGHKPEPTDEEWELIKTVTEAHVATNAQGSHWKQKRKFLPEDIGQAPIVNAPEGGQVDLEAFSHFTKIITPAITRVVDFAKKLPMFCELPCEDQIILLKGCCMEIMSLRAAVRYDPDSETLTLNGEMAVTRGQLKNGGLGVVSDAIFDLGMSLSSFNLDDTEVALLQAVLLMSSDRPGLACVERIEKYQDSFLLAFEHYINYRKHHVTHFWPKLLMKVTDLRMIGACHASRFLHMKVECPTELFPPLFLEVFED |  | binds
